The list shows a part of the results. Shown are side measurements of this screen, not its main read-out; they come without a call. Most of these compounds were active or inconclusive in the main read-out, so they are no random draw. Words in brackets tell the shape of the fitted curve; partial curves, single points and poor fits give uncertain potencies.
Experiment: qHTS Assay to Find Inhibitors of Chronic Active B-Cell Receptor Signaling
Details: ABC-DLBCL IkBa-CBG/CBR reporter, luminescence ratio (green luciferase fused to IkBa over red control in TMD8 lymphoma cells), 4 h
Outline: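 Concentration-response series (up to 46 uM) were applied to TMD8 dual-reporter cells for 4 h at 37C with doxycycline. Green/red ratio, after filter-overlap correction, defined %Activity; red signal alone was normalised to basal cells and zero luminescence.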

[1] = measured here: CBR red luminescence, cell number
[2] = measured here: IkBa-CBG green luminescence

| Structure (SMILES) | AC50 [1] | AC50 [2] |
| --- | --- | --- |
| CCOC(=O)c1nn(-c2ccccc2)c2nnc(Cc3ccc(Cl)cc3)c(=O)n12 | 8.2 µM [rising, partial curve, poor fit] | – |
| O=C(NC(=S)Nc1cccnc1)c1cc2ccccc2o1 | 0.184 µM [rising, full curve, poor fit] | – |
| Cc1csc(NC(=O)CCc2nc3ccccc3s2)n1 | 25.9 µM [falling, partial curve, poor fit] | – |
| O=C(NC(=S)NNC(=O)c1ccccc1O)c1ccc([N+](=O)[O-])cc1 | 6.31 µM [falling, partial curve, poor fit] | – |
| COc1cccc(NC(=O)Nc2ccc(C)c(Cl)c2)c1 | 17.8 µM [falling, partial curve, poor fit] | – |
| O=C(Nc1nc2ccccc2[nH]1)c1ccccc1 | 2.06 µM [falling, full curve] | – |
| O=C(c1cc(-c2ccc(O)cc2)on1)N1CCCc2ccccc21 | 35.5 µM [falling, single point] | – |
| COC(=O)c1ccccc1NC(=O)c1ccc2nccnc2c1 | 22.4 µM [falling, single point] | – |
| COc1ccccc1CCNC(=O)C1CCN(C(=O)/C=C/c2ccccc2)CC1 | 10 µM [falling, single point] | – |
| CC(C)c1ccccc1NC(=S)NCc1nc2ccccc2[nH]1 | 10 µM [falling, partial curve] | – |
| CSC1=NC(=O)/C(=C/c2ccc(SC)cc2)S1 | 35.5 µM [falling, single point] | – |
| COc1ccc(OC)c(NC(=O)c2cc(-c3cc(C)cc(C)c3O)n[nH]2)c1 | 11.2 µM [falling, partial curve, poor fit] | – |
| COc1ccccc1N1CCN(C(=O)c2ccc(S(=O)(=O)N3CCCCC3)cc2)CC1 | 23.1 µM [rising, single point] | – |
| Cc1cc(C)n(C(=O)c2ccc(S(=O)(=O)NCC3CCCO3)cc2)n1 (stereo unspecified) | 23.1 µM [falling, single point] | – |
| COc1ccccc1-c1cc(SC)c(C#N)c(=O)o1 | 29.1 µM [falling, single point] | – |
| CCCCn1c(N)c(N(CC(C)C)C(=O)C2CCN(S(=O)(=O)c3ccc(C)c(C)c3)CC2)c(=O)[nH]c1=O | 3.55 µM [falling, partial curve] | – |
| CON(c1nc(Cl)nc(N(C)C)n1)S(=O)(=O)c1ccc(C)cc1 | 15.8 µM [falling, partial curve, poor fit] | – |
| COc1cc(NC(=O)c2cc3nc(C)cc(C)n3n2)c(OC)cc1Cl | 0.517 µM [rising, full curve, poor fit] | – |
| O=C(Nc1cccc(F)c1)N1CCC(c2ccccc2)CC1 | 12.6 µM [falling, partial curve, poor fit] | – |
| CC(=O)Oc1ccc(C(=O)[C@H]2[C@H]3C(=O)N(c4ccc(C)cc4C)C(=O)[C@H]3[C@@H]3C=CC=NN32)cc1 | 0.708 µM [rising, partial curve, poor fit] | – |
| CC(=O)c1c(C)[nH]c(C(=O)OCc2cccc(Cl)c2)c1C | 7.08 µM [rising, full curve, poor fit] | – |

| Structure (SMILES) | AC50 [1] | AC50 [2] |
| --- | --- | --- |
| CC(C)NC(=O)/C(C#N)=C\c1ccc(N(C)C)o1 | 2.82 µM [rising, partial curve, poor fit] | – |
| COc1ccc(C(=O)/C=C/c2cc(C(=O)O)cc3c2OCOC3)c(O)c1 | 1.12 µM [falling, single point] | – |
| COC(=O)[C@@H](NC(=O)O[C@@H]1C(=O)c2cc(Br)ccc2O[C@H]1c1cccc(OC)c1)C(C)C | 1.84 µM [rising, partial curve] | – |
| N/C(=N\OC(=O)Nc1ccc(Cl)c(Cl)c1)c1ncc(C(F)(F)F)cc1Cl | 0.651 µM [rising, partial curve, poor fit] | – |
| CCN(CC)C(=O)c1sc2nc(-c3ccc(OC)cc3)cn2c1C | 8.91 µM [falling, partial curve, poor fit] | – |
| COc1ccc(-c2csc3nc(-c4cccnc4)nc(N4CCC(C(N)=O)CC4)c23)cc1OC | – | 18.4 µM [falling, partial curve, poor fit] |
| Cc1ccc(NC(=O)CSCc2ccco2)cc1 | 1.58 µM [rising, partial curve, poor fit] | – |
| O=c1oc2cc(O)ccc2cc1-c1nc2c(s1)CCc1ccccc1-2 | 0.291 µM [falling, full curve] | – |
| COc1ccccc1NC(=O)COC(=O)CNC(=O)C1CCCCC1 | 14.6 µM [rising, partial curve] | – |
| O=C(CNCc1ccccc1)Nc1ccc(Cl)cc1 | 12.6 µM [falling, single point] | – |
| CC1CN(CC(=O)Nc2cccc(C(=O)Nc3cccc(C(F)(F)F)c3)c2)CC(C)O1 (stereo unspecified) | 20.6 µM [falling, single point] | – |
| Cc1cccn2c(=O)c3cc(C(=O)NCCN4CCOCC4)n(C)c3nc12 | 7.08 µM [rising, partial curve, poor fit] | – |
| O/N=C1\CCCc2ccc3ccccc3c21 | – | 20 µM [rising, partial curve, poor fit] |
| O=c1oc(-c2ccccc2)nc2ccsc12 | 4.11 µM [falling, full curve] | – |
| O=C(COc1ncnc2ccccc12)Nc1ccc(S(=O)(=O)N2CCOCC2)cc1 | 6.31 µM [rising, single point] | – |
| COc1ccc(CCN2CC34C=CC(O3)C(C(=O)NCc3ccccc3)C4C2=O)cc1OC (stereo unspecified) | 14.1 µM [rising, partial curve, poor fit] | – |
| Cc1cccc(NC(=O)C2CCC(CNC(=O)[C@@H]3Cc4ccccc4CN3)CC2)c1 (stereo partly specified) | 10 µM [falling, partial curve] | – |
| Cc1cnc(C(=O)NCCc2ccc(Cl)cc2)cn1 | 15.8 µM [rising, partial curve, poor fit] | – |
| COc1ccc(/C=N/NC(=O)C(=O)N2CCCCCC2)cc1[N+](=O)[O-] | – | 15.8 µM [falling, partial curve, poor fit] |
| Clc1cccc(-c2nc(-c3ccc(-c4nn[nH]n4)cc3)no2)c1 | 29.1 µM [falling, single point] | – |
| O=C(CC(SCCO)c1ccc2c(c1)OCO2)c1ccco1 (stereo unspecified) | 4.11 µM [falling, single point] | – |

Grouped by structure: those above with a nitro group on carbon (2)

| Structure (SMILES) | AC50 [1] | AC50 [2] |
| --- | --- | --- |
| O=C(NC(=S)NNC(=O)c1ccccc1O)c1ccc([N+](=O)[O-])cc1 | 6.31 µM [falling, partial curve, poor fit] | – |
| COc1ccc(/C=N/NC(=O)C(=O)N2CCCCCC2)cc1[N+](=O)[O-] | – | 15.8 µM [falling, partial curve, poor fit] |

Next structures follow:

| Structure (SMILES) | AC50 [1] | AC50 [2] |
| --- | --- | --- |
| CN(C)CCCn1c2c(c(SCC(=O)Nc3cccc4ccccc34)nc1=O)CCCC2 | 16.4 µM [falling, partial curve, poor fit] | – |
| CC(SC1=NCCS1)C(=O)Nc1nnc(-c2ccc(Cl)cc2)s1 (stereo unspecified) | 6.51 µM [rising, partial curve] | – |
| CC1CCCCN1CCNC(=O)c1ccc2c(c1)N(Cc1cccc(Cl)c1)C(=O)c1ccccc1S2=O (stereo unspecified) | 10 µM [falling, partial curve] | – |
| CC1CCc2c(sc3c2C2=NS(=O)(=O)CCN2C=N3)C1 (stereo unspecified) | 6.51 µM [rising, single point] | – |
| O=C(NCCc1cccs1)c1cccs1 | 14.1 µM [falling, partial curve] | – |
| Cc1ccc(Nc2nc(C)cs2)cc1 | 6.31 µM [rising, single point] | 14.1 µM [falling, partial curve, poor fit] |
| CCN(CC)c1ccc(/C=N/NC(=O)CCC(=O)NCc2ccccc2)c(O)c1 | 20.6 µM [rising, partial curve] | – |
| c1ccc(-c2noc(-c3ccc4c(c3)OCO4)n2)nc1 | 4.61 µM [falling, full curve] | – |
| CC(=O)Nc1ccc(C(=O)CCl)cc1 | 29.1 µM [falling, single point] | – |
| CN(c1ccccc1)c1ccc(/C=N/NC(=O)CC#N)cc1 | 0.58 µM [falling, full curve] | – |
| COc1cccc(/C=C2\Oc3cc(OCC(=O)N4Cc5ccccc5C[C@H]4C(=O)O)ccc3C2=O)c1 | 17.8 µM [falling, single point] | – |
| CCS(=O)(=O)c1ncc(Cl)c(C(=O)Nc2ccc(C)cc2)n1 | 5.62 µM [falling, full curve] | 2.82 µM [rising, full curve, poor fit] |
| CCN(CC)c1ccc(-n2c(C)cc(C=O)c2C)cc1 | 6.51 µM [rising, single point] | – |
| COc1ccc(C2CC(c3cccs3)=NN2C(=O)CSC2=NCCS2)cc1 (stereo unspecified) | 35.5 µM [falling, single point] | – |
| CC(C)(C)OC(=O)NCCCCCNC(=O)c1[nH]cnc1C(=O)Nc1ccc(Cl)cc1 | 29.1 µM [falling, single point] | 32.6 µM [rising, partial curve, poor fit] |
| CCN(CC)C(=O)C(=O)c1cc(C)n(-c2ccc(F)cc2)c1C | 35.5 µM [falling, single point] | – |
| O=C(COc1ccc(Br)cc1)NNC(=S)NC(=O)c1ccccc1[N+](=O)[O-] | 16.4 µM [rising, partial curve] | – |
| COc1cccc(/C=N/Nc2ncnc3c2ncn3Cc2ccccc2)c1O | 1.03 µM [falling, partial curve] | – |
| Cc1ccc(C)c2c1cc(C)c1nnc(SCC(=O)c3cccs3)n12 | 0.82 µM [rising, full curve, poor fit] | – |
| COc1ccc(C(=O)Nc2cc(C(F)(F)F)ccc2-n2cnc3ccccc32)cc1 | 20.6 µM [falling, single point] | – |
| O=[N+]([O-])c1cc(Cl)cc2c1nc(NCCO)c1ccccc12 | 20 µM [falling, single point] | – |

Source: PubChem BioAssay AID493014 (National Center for Advancing Translational Sciences (NCATS), 2011)
